## Percent effect of library compounds

From ChEMBL document CHEMBL3988442, “University of Dundee, Small-Polar-MMV Screening Library” (2021).

Results are given as percent effect. The record does not define 0% and 100%; most values in the screen are far below 50% and negative numbers occur (in some assays of this library far below -100). The compounds are a random part of those screened.

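Whole-parasite assay of Trypanosoma brucei over 72 hours; the read-out is not stated. Compounds at 30 µM. Higher reads as stronger inhibition (inferred: compounds with an IC50 in retests scored well above the rest). Values scatter widely below zero; nearly all retest evidence comes from the higher of the two concentrations used. Of about 64,000 compounds tested this way, about 940 (1.5%) reached 50% or more in at least one test.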

SMILES	effect
CC(C)NC(=O)C1(Cc2ccccc2-c2cccs2)CCNC1 (stereo not given)	100.3%
O=C(Cn1nc2ccccc2n1)N1CCCC(O)(CO)C1 (stereo not given)	-50.77%
COc1ccc2[nH]c3c(N(C)CC4OCCO4)ncnc3c2c1	-2.129%
Cc1ccc(C)c(NC(=O)Cn2cc(I)cn2)c1	-1.198%
CCOc1nc2cccnc2n(CC(=O)NCCOC)c1=O	24.39%
Cc1c(C)n(-c2ccccn2)c2nc3c(c(N)c12)CCCCC3	-26.49%
Cc1cnn(CCNCc2csc(-c3ncccn3)n2)c1	-11.28%
CN(CC1CCCC1)C(=O)c1cn(C)nc1-c1cccnc1	-19.96%
CN(CCNC(=O)N1CCN(Cc2ccon2)CC1)C1CCCC1	22.48%
COc1ccc(CNc2nc(N3CCOCC3)ns2)cc1	28.91%
CN(C)C(=O)N1CCc2onc(C(=O)Nc3cccnc3)c2C1.O=C(O)C(F)(F)F	-24.31%
CC(C)CN1CCC(NC(=O)c2ccc(F)cc2F)CC1	-0.8337%
O=C(c1cc(-n2cccn2)ccn1)N1CCOc2ccc(F)cc21	9.017%
Cc1nn(C)c(C)c1CN(C)C(=O)c1cc(C(F)(F)F)n(C)n1	-3.717%
CCn1cc(CNc2ccc(N(C)CCOC)cn2)cn1	-34.31%
CC(O)CN1CCN(Cc2coc(-c3ccccc3Cl)n2)CC1 (stereo not given)	-70.81%
c1csc(CN2CCC3(CC2)COCCN3CC2CC2)n1	-35.5%
O=C(NCCNS(=O)(=O)C1CCCCC1)c1ccccc1	-5.868%
COC(=O)CNc1cc(C(=O)NCC(F)(F)F)cc(F)c1C	-28.95%
CC(C)(C)OC(=O)N1CCN(S(=O)(=O)CCCC#N)C2(CCCCC2)C1	-17.42%
Cn1ncc2c1NC(=O)CC2c1cccs1 (stereo not given)	12.04%
Cc1ccccc1CS(=O)(=O)CC(=O)N(C)Cc1cccc(F)c1	-71.65%
CC(Oc1ccc2c(c1)OCO2)C(=O)N1CCC(N2CCCC2)CC1 (stereo not given)	-37%
Fc1ccccc1CN(CCCn1ccnc1)CC1CCOC1.O=C(O)CC(O)(CC(=O)O)C(=O)O (stereo not given)	-0.3397%
O=C(O)C(F)(F)F.O=C1N(CC2CC2)CCC12CCN(CC1CC1)CC2	-48.71%
Cc1cn(Cc2nc(CC(C)C)nn2-c2ccccn2)c(=O)[nH]c1=O	0.7146%
Cc1cc(C)n(C2CCCN(C(=O)c3cccc4[nH]ncc34)C2)n1 (stereo not given)	42.41%
CCc1cnc(CN(C(C)=O)C2CCN(CC3(O)CCCCC3)C2)o1 (stereo not given)	6.062%
CC(C)c1ocnc1C(=O)N1CC(=O)Nc2cccnc21	-16.24%
Cc1cc(NC(=O)CCN2CCn3c(C)nnc3C2)no1	18.61%
COc1ccc2c(c1)nc1n2[C@@H](CNCc2nccs2)COC1	-4.575%
[H][C@@]12CCN(Cc3cc(C)on3)C[C@@]1([H])O[C@@H](C(=O)N(C)C)C2	15.98%
CN1CCN(S(=O)(=O)c2ccccc2)Cc2cccnc21.O=C(O)C(F)(F)F	-12.08%
O=C(O)C1CN(Cc2cnc(C3CCCCC3)nc2)CCO1 (stereo not given)	-14.08%
COc1cccc(N2CCN(C(=O)C(C)Oc3ccccc3)CC2=O)c1 (stereo not given)	-8.574%
Cc1nc(C2CCCN2C(=O)Cc2ccc(F)cc2)nc(O)c1C (stereo not given)	0.2189%
Cc1ccn(-c2cncc(C(N)=O)c2)n1	-46.21%
CCC[C@H]1CN(c2nccc(OC)n2)C[C@@H]1NS(=O)(=O)N(C)C	-39.63%
CCOCCC1(CNC(=O)c2ccc(C)nc2)CCCC1	0.8693%
CNS(=O)(=O)c1ccc(CN2CCCN(CC(C)C)CC2)cc1	-80.34%
CNC(=O)CN1CCC(NC(=O)C(C)Oc2ccccc2C#N)CC1 (stereo not given)	4.605%
COc1cccc(Nc2nc(C3CCCNC3)c3sc(C)c(C)n23)c1.Cl (stereo not given)	2.239%
CCc1ccc(C2CCCN2C(=O)CNC(=O)CCC(C)C)o1 (stereo not given)	-6.799%
Cc1c(C(=O)N2CCC(C(=O)c3nc4ccccc4s3)CC2)cnn1C	8.548%
CN1CCN(C2CCN(CC(=O)NCC(F)(F)F)CC2)C1=O	7.468%
CC(C)NC(=O)C(C)NC(=O)N1CCN(c2ccc(Cl)cc2)CC1 (stereo not given)	51.3%
Cc1nc(C)c(Cn2ccnc2-c2cc(CN(C)C)cs2)s1	-10.61%
CCOc1ccc(CN(C)C(=O)NC(C)c2nncn2C)cc1 (stereo not given)	-28.23%
Cc1nc2c(c(N3CC=CC3)n1)CCN(c1ncccc1C(N)=O)CC2	12.09%
CCN(CC)c1ccc(NS(=O)(=O)c2cncc(F)c2)cn1	35.77%
CCc1cc(NCCNC(C)=O)nc(N2CCOCC2)n1	-22.83%
CN(c1ncnc2sccc12)C1CCCN(c2cccnn2)C1 (stereo not given)	-40.92%
CCNC(=O)Nc1ccc2c(ccn2CC(=O)N(CC)CC)c1	-46.21%
O=C(O)C(F)(F)F.[H][C@@]12CO[C@@H](CNS(C)(=O)=O)[C@]1([H])CCN(Cc1ccccc1)C2	-47.97%
Cc1cn2nc(N3CCN(Cc4c(C)noc4C)CC3)sc2n1	-6.336%
OCc1csc(N2CCCN(Cc3ccc(F)cc3)CC2)n1	-42.46%
Cc1nccnc1N1CC[C@@H](NC(=O)c2cnccn2)[C@H](O)C1	12.58%
CN1CCc2nc(C3CCN(C(=O)CCC4CCCC4)CC3)ncc2C1	16.18%
COC(=O)NCC(=O)NC1(C)CCc2ccccc2C1 (stereo not given)	-50.66%
[H][C@@]12CS(=O)(=O)C[C@]1([H])N(Cc1cnc(C)nc1)CCN2C(=O)N(CC)CC	-11.36%
CC(C)n1cc(N2CC(C(=O)N3CCN(C)CC3)CC2=O)cn1 (stereo not given)	-17.6%
CC(C)N1CCC(CC(=O)N2CCCCC2CCn2cccn2)CC1 (stereo not given)	-12.94%

For reference, 6 entries once more:

| SMILES | effect |
|---|---|
| `CC(C)CN1CCC(NC(=O)c2ccc(F)cc2F)CC1` | -0.8337% |
| `O=C(O)C(F)(F)F.O=C1N(CC2CC2)CCC12CCN(CC1CC1)CC2` | -48.71% |
| `CN1CCN(S(=O)(=O)c2ccccc2)Cc2cccnc21.O=C(O)C(F)(F)F` | -12.08% |
| `CCc1cnc(CN(C(C)=O)C2CCN(CC3(O)CCCCC3)C2)o1` (stereo not given) | 6.062% |
| `[H][C@@]12CS(=O)(=O)C[C@]1([H])N(Cc1cnc(C)nc1)CCN2C(=O)N(CC)CC` | -11.36% |
| `Cc1ccn(-c2cncc(C(N)=O)c2)n1` | -46.21% |